Primary screen of a compound library

Source: ChEMBL document CHEMBL3988442, “University of Dundee, Small-Polar-MMV Screening Library” (2021).

A: 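Phenotypic screen: M. tuberculosis growth, cholesterol and DPPC medium, 4 days; the read-out is not stated. Concentration: 50 µM. The record gives no direction; compounds that gave an IC50 in retests scored well above the rest, so higher reads as more growth inhibition. Of about 69,000 compounds tested this way, about 370 (0.54%) reached 50% or more in at least one test.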
B: 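Growth of Mycobacterium tuberculosis over 3 days (7H9 medium with glucose and tyloxapol); the read-out is not stated. Compounds at 50 µM. The record gives no direction; compounds that gave an IC50 in retests scored well above the rest, so higher reads as more growth inhibition. Size under these conditions: about 69,000 compounds, about 760 of them at 50% or above in at least one test.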

Each number is a percent effect as filed.
The record does not define 0% and 100%; most values in the screen are far below 50% and negative numbers occur (in some assays of this library far below -100).
The compounds are a random part of those screened.
Two or more numbers in one place are separate tests of the same structure; such repeats can differ widely.

Compound | A | B
CC(C)NC(=O)c1cc(Br)c2c(c1)OCCO2 | -11.33 | -8.389
[H][C@]12COC[C@H](N3CCN(C)CC3)[C@@]1([H])CN(Cc1cccnc1)C2 | 8.871 and -13.2 | -17.64
CCc1nc(C)c(C(=O)N2CCCN(Cc3cnn(C)c3)CC2)s1 | 17.47 | 3.705
COC(CNC(=O)c1ccc[nH]1)c1cccc(Cl)c1 (stereo not given) | 8.748 | 18.54 and 22.19
Cn1cncc1CNC1CC2(CCN(S(C)(=O)=O)CC2)c2ccccc21.O=C(O)C(F)(F)F (stereo not given) | 6.712 | -16.24 and -6.064
CC(CC(F)(F)F)NCc1ccccc1-n1ccnc1 (stereo not given) | 6.982 | -2.524 and 3.796
CNc1nc2c(s1)C(c1ccc(F)cc1Cl)CC(=O)N2 (stereo not given) | 6.18 | 36.85
CC(O)(CN1CCC(O)CC1)c1cccc(C(F)(F)F)c1 (stereo not given) | -16.13 | -29.32
Cc1nc2cc(O)nn2c(C)c1CCC(=O)NCCCC(C)C | 8.824 | 13.38
O=C(O)C(F)(F)F.O=C(O)C(F)(F)F.[H][C@]12CCC[C@@H](CN(C)CCOC)[C@@]1([H])CN(Cc1ccc(OC)nc1)C2 | 1.61 | 4.051 and -5.66
O=C(O)C(F)(F)F.[H][C@@]12OCCN(Cc3nccn3C)[C@@]1([H])CCC2CNC(=O)c1ccco1 (stereo not given in full) | 6.972 | -2.841 and -3.396
CC(C)(CCS(C)(=O)=O)CNC(=O)NC1CCCC1(C)C (stereo not given) | 2.204 | -15.08 and -3.977
Cc1cc(C)cc(C(=O)NCCCC2(C3OCCO3)CCOCC2)c1 | 4.362 | 3.135 and 19.85
CC(NCCCC#N)c1ccc(-c2cccnc2)cc1 (stereo not given) | 0.2015 | 8.469 and -7.764
CCc1cc(N(C)Cc2nonc2C)nc(N2CCOCC2)n1 | 6.67 | 10.77
Cc1cc(C(=O)N2CCC(C)CC2)ccc1NS(C)(=O)=O | 13.24 and 0.7339 | 1.653
OCCN(Cc1nc(-c2ccc3c(c2)OCO3)no1)CC1CC1 | 2.145 | -0.4735
COc1cccc(C2C3=C(COC3=O)Nc3[nH]nc(C)c32)c1OC (stereo not given) | -5.207 and 4.379 | 7.496
c1ccc(N2CCCC3(CCN(Cc4nccs4)C3)C2)nc1 (stereo not given) | -13.95 | -22.62
CC(C)NC(=O)NC(C)c1ccc(-c2ccncc2)cc1 (stereo not given) | -8.231 | -1.152 and -28.12
CCNC(=O)N1CCCCC1CCO (stereo not given) | 16.41 | 11.47
CC1CCC(NC(=O)NCC(C)(C)CCS(C)(=O)=O)CC1 (stereo not given) | 7.049 | 2.906 and -1.971
Cc1nc(CN2CCC(c3nc4ccccc4n3C)CC2)co1 | -30.72 | -20.26
CN(CCO)C[C@@H]1CN(C(=O)c2c(F)cccc2Cl)C[C@@H]1CO | -30.09 | -25.01
Cc1cnn(C2CN(CC(=O)NCCCc3ccccc3)C2)c1 | -40.57 | 0.07072
N#Cc1cccc(N2CCC(CO)(CCCc3ccccc3)CC2)n1 | -10.38 | 17.62 and -26.88
Cc1ccc(N(CC(=O)N2CCCCC2)C(=O)C2CCCO2)cc1 (stereo not given) | -1.728 and -1.361 | 0.5843
Cc1ccnn1C(C)C(=O)Nc1cc(-c2ccncc2)[nH]n1 (stereo not given) | 8.687 | 27.74
Cn1c(CO[C@H]2CN(S(C)(=O)=O)C[C@H]2F)nc2ccccc21 | 4.111 | -31.32 and -1.412
O=C(CN1C=Nc2ccccc2S1(=O)=O)NC1CCCCC1 | 11.32 | 9.569
Cc1csc(CCNC(=O)Nc2cc(C(F)(F)F)c[nH]c2=O)n1 | 6.841 | 26.14
CCN1CCCC(O)(c2nc(C)c(CCOc3ccccc3Cl)s2)CC1 (stereo not given) | 6.337 | -6.136
O=C(O)C(F)(F)F.O=C(O)C(F)(F)F.[H][C@@]12CCN(Cc3cccc(C)n3)[C@@]1([H])CCN2C(=O)c1ccoc1C | -15.68 | -4.442
CCN(CC(=O)NC(C)C)S(=O)(=O)N1CCC(C)C1 (stereo not given) | 8.534 | 11.46
NC(=O)NC(=O)CCn1ccc(-c2ccccc2)n1 | -4.563 | -4.585 and -1.58
NC(=O)C1CCCN1C1CCN(C(=O)c2ccc3c(c2)OCO3)CC1 (stereo not given) | -7.344 | -16.74
O=C(NCCc1[nH]nc2c1CCCC2)C1CCCN(Cc2ccco2)C1 (stereo not given) | 2.908 and 4.409 | 11.7
Nc1cc(N2CCC(c3cc(Cc4ccccc4)n[nH]3)CC2)ccn1 | 23.3 | 30.11
NC(=O)c1cc2c(nc1Oc1ccccc1CN1CCCCC1)CCC2 | -3.801 | 2.259
Nc1nc(CNc2ncnc3c2CCN(Cc2ccoc2)CC3)cs1 | 15.67 | 19.96
[H][C@@]12CCN(C(=O)c3cccnc3OC)C[C@@]1([H])O[C@@H](c1noc(C)n1)C2 | -23.33 | -28.64
Cc1ccccc1SCC(=O)NS(=O)(=O)c1ccc2c(c1)OCCO2 | 6.66 | -18.93
Cc1ncsc1CN1CCOC(C)(C(=O)N(C)C)C1 (stereo not given) | -4.257 | -4.263
Cc1cccc(S(=O)(=O)NC(=O)CN(C)Cc2ccccc2)c1 | 4.653 | -7.98 and -0.8235
CSc1ccc(CNC(=O)C2CC(=O)N(C(C)(C)C)C2)cc1 (stereo not given) | -26.05 | 19.02
CC(C)(Oc1ccc2c(c1)CCCC2=O)C(=O)NCc1ccco1 | 14.84 | -12.37
CCN1CCCC(C)(C(=O)NCCCc2nc(C)cs2)C1 (stereo not given) | -9.416 and -5.373 | -32.6
O=C(NCCN1CCOCC1)Nc1cnc2cc(Cl)ccc2c1O | -14.05 | -28.58
CCn1ncc(CN2CCCC(n3c(=O)oc4ccccc43)C2)c1C.Cl (stereo not given) | -2.3 and 4.722 | 18.18
CCOc1cc(C)nc(N2CCN(C(=O)c3cc(Cl)c[nH]3)CC2)n1 | 2.096 and -1.078 | 18.94
[H][C@@]12C[C@@H](c3noc(C)n3)O[C@]1([H])CN(C(=O)c1cc(C)nn1CC)C2 | -4.164 | 0.05159
CCN(Cc1cc(=O)n2cc(Br)ccc2n1)C1CC1 | -0.7545 and 12.7 | -18.32
Cc1cc(C)c(S(N)(=O)=O)cc1C(=O)NCCN1CCC(C)CC1 | -2.875 | -6.025 and -2.424
Cc1nc(S(=O)(=O)N2CCSC3(CCCCC3)C2)cn1C | -3.726 | -12.54
COCCC(=O)N1Cc2nc3c(C)c(-c4cccs4)nn3c(O)c2C1 | -1.099 and -0.1581 | -23.12
[H][C@@]12COC[C@H](c3nc(C)no3)[C@]1([H])CN(C(=O)Cc1cccc(F)c1)C2 | -11.02 | -8.004
CCC(CNC(=O)Cc1cc(C)on1)Oc1cccc(F)c1 (stereo not given) | -4.853 | -20.97 and 2.235
CNc1cncc(C2CCCN2Cc2ccnc(N3CCCC3)n2)n1 (stereo not given) | -14.16 | 10.62
CC(C)(C)OC(=O)NCC1CCN(C(=O)c2cc(Cl)c[nH]2)CC1 | -12.34 | -25.36
COCCN1CCC2(CC1)C(=O)Nc1ccc(C(=O)NC(C)C)cc12.O=C(O)C(F)(F)F | 12.62 | 36.68
O=C(c1c2c(N3CCCC3)ncnc2n2ccccc12)N1CCOCC1 | -10.27 | 7.376
CCCC(C)(O)c1cc(C(N)=O)no1 (stereo not given) | -4.677 | -14.82 and 0.8798
CC(=O)OCc1ccc(CN2CCCCCC2c2cc(C)no2)o1 (stereo not given) | -17.8 | -51.95
CCN1C(=O)CCC12CCCN(S(=O)(=O)c1cccc(C)c1)CC2 (stereo not given) | -12.79 | -38.88
CCNC(=O)[C@@H]1C[C@H](N)CN1C(=O)c1c[nH]c2ccccc12 | -8.511 | -15.69
Cc1cc(N)nc(C2(C)CCCN2C(=O)Cc2ccc(F)cc2)n1 (stereo not given) | -4.206 | 8.817
CCOC(=O)CC(C)NC(=O)c1cn(Cc2ccccc2F)nn1 (stereo not given) | -22.03 | -23.47
Cn1cc(Br)c(=O)c(NS(=O)(=O)c2ccc3c(c2)CCC3)c1 | 11.58 | 0.7931 and 2.554
CC(C)C(C)(C#N)NC(=O)Cn1nnc(-c2cc3ccccc3o2)n1 (stereo not given) | -8.14 | -23.44 and -1.682
O=C(O)C(F)(F)F.[H][C@]12CCCC(N(C)Cc3cccs3)[C@@]1([H])CN(C(=O)c1cnccn1)C2 (stereo not given in full) | -0.9707 | -14.07 and 0.4188
O=C(O)C(F)(F)F.[H][C@@]12CCN(c3ncc(F)cn3)C[C@]1(COc1nccc(C)n1)CCO2 | 2.006 | 22.12
Cc1noc(C2CCC3(CCN(C(=O)c4sccc4C)CC3)O2)n1 (stereo not given) | 0.413 | -6.994
CN(C)c1cccc(C(=O)N2CCn3c(nnc3C3CC3)C2)c1 | -7.824 and -11.63 | -2.092
CCCn1cc(Cl)c(C(=O)N2C[C@@H](O)[C@H](NC(C)=O)C2)n1 | -1.844 and -4.589 | -6.698